Measured data: PubChem BioAssay AID743121 (NCATS, 2013)

- Test: 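Partners whose loss is lethal together with topoisomerase I blockade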 (primary screen)
- System: MDA-MB-231 cells, a human breast cancer line
- Reagent: single siRNA against human genes, 20 nM siRNA (0.8 pmol per well)
- Duration: 120 h (drug added 48 h after transfection, read 72 h later)
- Conditions: camptothecin 20 nM (about EC30) for 72 h; vehicle 0.1% DMSO in parallel plates
- Detection: 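Cell viability by ATP luminescence (CellTiter-Glo) as % of non-targeting siRNA wells, and the log2 ratio of viability without drug over viability with camptothecin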
- Scale: log2 vehicle/camptothecin viability: higher = stronger sensitisation to camptothecin; viability with camptothecin and viability without drug: higher = more viable cells
- Hit rule: 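Each gene scored by redundant siRNA activity (RSA) over its individual siRNA ratios; a gene is called active at p < 0.001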
The deposit covers about 26,000 reagents; shown is a random part of them. Of all reagents, 167 (0.63%) are marked active. 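Calls are per gene from RSA p-values that are not deposited; an individual active-marked siRNA can sensitise only weakly.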 Reagents against one gene are numbered here. No sequences are given here.

The first 3 records, to show the layout:
gene symbol	reagent	log2 vehicle/camptothecin viability	viability with camptothecin (% of control)	viability without drug (% of control)	activity call
SETD1B	1	0.0108	106	107	inactive
SETD1B	2	0.235	75.9	89.4	inactive
SETD1B	3	-0.308	70.6	57	inactive

Main list, from the start:
gene symbol	reagent	log2 vehicle/camptothecin viability	viability with camptothecin (% of control)	viability without drug (% of control)	activity call
SETD1B	1	0.0108	106	107	inactive
SETD1B	2	0.235	75.9	89.4	inactive
SETD1B	3	-0.308	70.6	57	inactive
SETD1B	4	-0.22	86.8	74.5	inactive
LIPA	1	-0.0131	99.7	98.8	inactive
LIPA	2	-0.439	116	85.5	inactive
LIPA	3	-0.0514	32.9	31.8	inactive
CHPF	1	0.136	80.7	88.7	inactive
CHPF	2	-0.79	62.9	36.4	inactive
CHPF	3	0.085	62	65.7	inactive
CHPF	4	-0.38	74.2	57	inactive
BSG	1	-0.0934	66.7	62.5	inactive
BSG	2	-0.0849	69.8	65.8	inactive
BSG	3	0.118	84.2	91.3	inactive
RETN	1	-0.172	60.2	53.4	inactive
RETN	2	0.355	59.1	75.6	inactive
RETN	3	-0.152	55.7	50.2	inactive
RETN	4	-0.313	98.1	78.9	inactive
NEFL	1	-0.192	48.5	42.5	inactive
NEFL	2	-0.048	92	89	inactive
NEFL	3	-0.251	113	95	inactive
NEFL	4	-0.376	86.6	66.7	inactive
SCARF2	1	-0.529	82.9	57.4	inactive
SCARF2	2	0.716	39.1	64.2	inactive
SCARF2	3	-0.242	66.5	56.3	inactive
NPC2	1	-0.213	72.9	62.9	inactive
NPC2	2	-0.204	97.2	84.4	inactive
NPC2	3	-0.136	105	95.7	inactive
NPC2	4	-0.041	61.5	59.8	inactive
FLRT3	1	-0.387	133	101	inactive
FLRT3	2	-0.335	95.8	75.9	inactive
FLRT3	3	-0.286	88.8	72.9	inactive
FLRT3	4	-0.491	111	78.6	inactive
CAMK2D	1	-0.263	103	86	inactive
CAMK2D	2	-0.0768	80.3	76.1	inactive
CAMK2D	3	-0.0733	107	102	inactive
CTRL	1	0.112	91.3	98.7	inactive
CTRL	2	0.302	22.8	28.1	inactive
CTRL	3	-0.354	94.7	74.1	inactive
CTRL	4	-0.478	95.8	68.8	inactive
OR52B4	1	0.328	44	55.2	inactive
OR52B4	2	-0.42	106	79	inactive
OR52B4	3	-0.369	125	96.5	inactive
OR52B4	4	-0.232	83.6	71.2	inactive
DNAJC16	1	-0.237	101	86.1	inactive
DNAJC16	2	0.133	70.8	77.6	inactive
DNAJC16	3	-0.158	86.4	77.5	inactive
DNAJC16	4	-0.298	80.4	65.4	inactive
NUP42	1	-0.0536	69	66.5	inactive
NUP42	2	-0.176	109	96.8	inactive
NUP42	3	-0.0127	74.4	73.7	inactive
NUP42	4	-0.569	96.1	64.7	inactive
FAP	1	-0.0323	102	99.4	inactive
FAP	2	-0.0797	85.2	80.6	inactive
FAP	3	-0.168	89	79.2	inactive
FAP	4	-0.391	78.8	60.1	inactive
NTSR2	1	-0.241	78.7	66.6	inactive
NTSR2	2	0.387	52.5	68.6	inactive
NTSR2	3	-0.377	53.9	41.5	inactive
NTSR2	4	-0.21	65.4	56.6	inactive
EPRS1	1	-0.399	84.9	64.4	inactive
EPRS1	2	-0.444	79.2	58.2	inactive
EPRS1	3	-0.212	41.4	35.8	inactive
CD1C	1	-0.386	95.3	72.9	inactive
CD1C	2	-0.217	121	104	inactive
CD1C	3	-0.0442	91.8	89	inactive
CD1C	4	-0.0556	100	96.2	inactive
ANPEP	1	-0.473	29.7	21.4	inactive
ANPEP	2	-0.837	78.8	44.2	inactive
ANPEP	3	-0.317	86.3	69.2	inactive
PDE1B	1	-0.129	85.7	78.4	inactive
PDE1B	2	-0.0987	93.7	87.5	inactive
PDE1B	3	-0.0302	91	89.2	inactive
PDE1B	4	-0.373	80.8	62.4	inactive
BTNL3	1	0.236	31.1	36.6	inactive
BTNL3	2	-0.0498	108	104	inactive
BTNL3	3	0.0209	91.7	93	inactive
BTNL3	4	0.0187	43.4	44	inactive
SLC20A2	1	-0.392	73.5	56	inactive
SLC20A2	2	-0.299	64.7	52.6	inactive
SLC20A2	3	-0.0467	51.3	49.6	inactive
SLC20A2	4	-0.039	85.1	82.9	inactive
CCT8	1	-0.54	95.4	65.6	inactive
CCT8	2	-0.466	43.1	31.2	inactive
CCT8	3	-0.438	60.6	44.7	inactive
CCT8	4	-0.476	76.1	54.7	inactive
CXCR2	1	-0.244	64.7	54.6	inactive
CXCR2	2	-0.0798	109	103	inactive
CXCR2	3	0.0717	45.1	47.4	inactive
CXCR2	4	0.688	12.3	19.8	inactive
